Source: article PMC3667844
These are yes or no findings as the source states them, for the method shown. Some results given as binding are weak or reduced against the parent protein; the word gives no strength.

By UniProt entry, the sequences of proteins in these tests, tags left out. Where a name states a change or a piece, a line headed by the entry shows the natural chain unless it says otherwise.
UniProt P62491: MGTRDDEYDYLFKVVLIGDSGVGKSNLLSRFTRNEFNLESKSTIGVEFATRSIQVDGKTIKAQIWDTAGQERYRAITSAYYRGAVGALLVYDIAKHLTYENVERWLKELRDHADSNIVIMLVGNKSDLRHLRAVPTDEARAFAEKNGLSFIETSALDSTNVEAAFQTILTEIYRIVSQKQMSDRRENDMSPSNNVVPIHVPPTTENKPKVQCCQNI
UniProt Q9H082: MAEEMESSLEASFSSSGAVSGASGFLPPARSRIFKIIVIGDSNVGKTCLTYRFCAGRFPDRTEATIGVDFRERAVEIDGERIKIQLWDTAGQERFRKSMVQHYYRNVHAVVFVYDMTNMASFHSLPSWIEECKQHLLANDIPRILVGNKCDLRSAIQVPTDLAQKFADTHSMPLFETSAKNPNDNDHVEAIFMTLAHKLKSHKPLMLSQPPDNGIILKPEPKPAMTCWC
UniProt Q9H0U4: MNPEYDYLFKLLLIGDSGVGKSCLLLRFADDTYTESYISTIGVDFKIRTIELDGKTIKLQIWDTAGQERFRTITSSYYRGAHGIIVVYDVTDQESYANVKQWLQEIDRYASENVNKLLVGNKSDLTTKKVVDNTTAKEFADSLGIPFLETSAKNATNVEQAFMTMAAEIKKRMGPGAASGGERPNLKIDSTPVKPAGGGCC
UniProt P61019: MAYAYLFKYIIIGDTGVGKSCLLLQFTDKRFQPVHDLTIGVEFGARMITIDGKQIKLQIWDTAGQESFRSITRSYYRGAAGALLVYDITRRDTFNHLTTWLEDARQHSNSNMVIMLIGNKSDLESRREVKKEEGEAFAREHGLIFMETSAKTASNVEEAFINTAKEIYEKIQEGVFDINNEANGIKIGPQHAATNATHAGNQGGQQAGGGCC

Assays:
Test in all cases: two-hybrid; Y190 co-transformed with prey (pP6 or pACT) and bait (pAS) plasmids; β-galactosidase reporter activity on replica filters with X-gal (β-gal)
[1] = target: T1, pAS Ypt6p Q69L (yeast) (UniProt Q99260)
T1 sequence: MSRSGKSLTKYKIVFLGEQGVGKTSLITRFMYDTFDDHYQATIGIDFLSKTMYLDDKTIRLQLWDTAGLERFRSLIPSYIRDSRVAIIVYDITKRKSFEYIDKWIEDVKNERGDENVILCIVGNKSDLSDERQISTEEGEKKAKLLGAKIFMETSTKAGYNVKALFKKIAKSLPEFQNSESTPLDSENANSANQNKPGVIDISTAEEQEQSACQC

[2] = target: pAS Rab11A wt (UniProt P62491)
[3] = target: pAS Rab33B T47N (UniProt Q9H082)
[4] = target: pAS Rab1B Q67L (UniProt Q9H0U4)
[5] = target: pAS Rab2 Q65L (UniProt P61019)
[6] = target: pAS Rab1B wt (UniProt Q9H0U4)
[7] = target: pAS Rab6A Q72L (UniProt P20340)
[8] = target: pAS Rab33B Q92L (UniProt Q9H082)
[9] = target: T2, pAS Rab6A' Q72L (UniProt P20340)
T2 sequence: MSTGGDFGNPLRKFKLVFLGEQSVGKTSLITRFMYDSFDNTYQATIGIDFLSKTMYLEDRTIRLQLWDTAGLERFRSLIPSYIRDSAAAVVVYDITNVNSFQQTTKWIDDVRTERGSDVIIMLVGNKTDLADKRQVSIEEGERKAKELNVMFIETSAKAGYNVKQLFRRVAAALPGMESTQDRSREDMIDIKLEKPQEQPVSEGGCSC

[10] = target: pAS Rab33B wt (UniProt Q9H082)
[11] = target: pAS Rab6B Q72L (UniProt Q9NRW1)

binding [1]: no binding
binding [2]: no binding
binding [3]: no binding
binding [4]: no binding
binding [5]: no binding
binding [6]: no binding
binding [7]: binds
binding [8]: no binding
binding [9]: binds
binding [10]: no binding
binding [11]: binds
B1: pP6 Mint1 (aa 438–769), yeast two-hybrid clone that lacks aa 495–505 (domain or fragment, UniProt Q02410-1)
chain: ASFPTYVEVPGPCDPEDLIDGIIFAANYLGSTQLLSDKTPSKNVRMMQAQEAVSRIKAPEGESQPMTEVDLFISTQRIKVLNADTQETMMDHPLRTISYIADIGNIVVLMARRRMPRSNSQENVEASHPSQDGKRQYKMICHVFESEDAQLIAQSIGQAFSVAYQEFLRANGINPEDLSQKEYSDLLNTQDMYNDDLIHFSKSENCKDVFIEKQKGEILGVVIVESGWGSILPTVIIANMMHGGPAEKSGKLNIGDQIMSINGTSLVGLPLSTCQSIIKGLKNQSRVKLNIVRCPPVTTVLIRRPDLRYQLGFSVQNGIIC
